No constants are given. Whether binding was seen depends on the method and setting. Binding seen in cells or lysates may run through a third protein. Some entries that bind do so weakly or less than the wild type. Values belong to the molecule of their own block, whether it stands above or below them.
Columns and labels:
[1] = target: T1, SNAP23 (UniProt O00161); assay: co-IP; co-immunoprecipitation with SNAP23 in HBMECs
T1 sequence: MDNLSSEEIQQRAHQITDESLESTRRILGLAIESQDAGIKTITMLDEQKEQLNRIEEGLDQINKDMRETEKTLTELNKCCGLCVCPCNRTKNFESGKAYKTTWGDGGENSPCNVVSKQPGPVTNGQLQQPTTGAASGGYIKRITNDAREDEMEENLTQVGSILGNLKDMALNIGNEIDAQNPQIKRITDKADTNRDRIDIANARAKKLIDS

Chains of the proteins cited; added tags and fusions are not shown.
UniProt Q15836: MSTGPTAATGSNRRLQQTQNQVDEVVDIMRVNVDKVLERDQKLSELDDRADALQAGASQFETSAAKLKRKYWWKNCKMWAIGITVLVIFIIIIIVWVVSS

[2] = target: FLAG-tagged VAMP3 (UniProt Q15836); assay: co-IP; HBMECs transfected with FLAG-tagged VAMP3 or FLAG-tagged syntaxin 4
[3] = target: FLAG-tagged syntaxin 4 (UniProt Q12846); assay: as above

binding [1]: binds
Molecule: VAMP3 (from UniProt Q15836 1-100)

binding [2]: no binding
binding [3]: no binding
B1: syntaxin 18 (protein, UniProt Q9P2W9 1-335)
chain: MAVDITLLFRASVKTVKTRNKALGVAVGGGVDGSRDELFRRSPRPKGDFSSRAREVISHIGKLRDFLLEHRKDYINAYSHTMSEYGRMTDTERDQIDQDAQIFMRTCSEAIQQLRTEAHKEIHSQQVKEHRTAVLDFIEDYLKRVCKLYSEQRAIRVKRVVDKKRLSKLEPEPNTKTRESTSSEKVSQSPSKDSEENPATEERPEKILAETQPELGTWGDGKGEDELSPEEIQMFEQENQRLIGEMNSLFDEVRQIEGRVVEISRLQEIFTEKVLQQEAEIDSIHQLVVGATENIKEGNEDIREAIKNNAGFRVWILFFLVMCSFSLLFLDWYDS

From publication PMC12260585
